Some of the results follow. Shown are side measurements of this screen, not its main read-out; they come without a call. The list favours compounds with an active or inconclusive main result. The note in brackets gives the kind of curve behind each potency; many fits are weak. Where a SMILES comes first, the peptide text is derived from it. The star is where a group is joined. Boc = CC(C)(C)OC(=O)*
Experiment: qHTS Assay for Lipid Storage Modulators in Drosophila S3 Cells;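 on cell number change: cells counted by Cell Tracker Red CMTPX staining in the red channel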
Conditions: BODIPY lipid droplet fluorescence, 18-24 h; for cell number change: measured here: cell count max response, cells fed with added oleic acid
Procedure, shortened: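 Drosophila S3 cells got compounds at several concentrations plus oleic acid (400 uM solution). Laser-scanning cytometry with 488 nm excitation read lipid droplets at 500-530 nm and cells at 575-640 nm. Percent activity was relative to 20 uM Triacsin C.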

[1] = measured here: cell number channel AC50, cells fed with added oleic acid
[2] = measured here: lipid fluorescence (Fed channel) AC50, cells fed with added oleic acid

Q: Which cell number change does the source give for `NCCN1CCN(S(=O)(=O)c2ccc([N+](=O)[O-])cc2)C=C1c1ccc(Cl)cc1` here?
A: -4.46%

Q: With `CC1CC(=O)C2=C(C1)Nc1ccccc1N(C(=O)COc1ccccc1)C2c1ccco1` (centres undefined) as the compound, how does the cell number change read?
A: 33.2%

Q: And the AC50 [1]?
A: 18.4 µM [rising, single point]

Q: With `O=c1[nH]c(SCc2ccccc2Cl)nc2c1cnn2-c1ccccc1` as the compound, how does the cell number change read?
A: -42.9%

Q: What about the AC50 [1] of the same compound?
A: 14.6 µM [falling, single point]

Q: And the AC50 [2]?
A: 29.1 µM [falling, single point]

Q: Which cell number change does the source give for `Cc1ccc(C(=O)CN2C(=O)C(=O)N(Cc3ccccc3)C2=O)cc1` here?
A: -14.3%

Q: What about the AC50 [2] of the same compound?
A: 7.31 µM [falling, partial curve, poor fit]

Q: Which AC50 [1] does the source give for `COc1cccc(OC)c1C(=O)Nc1ccc(S(=O)(=O)Nc2cc(C)nc(C)n2)cc1` here?
A: 0.92 µM [falling, partial curve]

Q: What about the AC50 [2] of the same compound?
A: 6.51 µM [falling, partial curve]

Q: With `O=C(CSc1n[nH]c(-c2ccncc2)n1)Nc1ccc(Cl)c(Cl)c1` as the compound, how does the cell number change read?
A: 2.1%

Q: And the AC50 [2]?
A: 0.291 µM [rising, full curve]

Q: Which cell number change does the source give for `COC(=O)CCCNC(=O)c1ccc2oc(CCCc3ccccc3)nc2c1` here?
A: -2.47%

Q: What about the AC50 [2] of the same compound?
A: 29.1 µM [falling, single point]

Q: With `O=C(CCN1C(=O)c2ccc([N+](=O)[O-])cc2C1=O)Nc1ccccc1C(=O)O` as the compound, how does the cell number change read?
A: 2.56%

Q: What about the AC50 [2] of the same compound?
A: 32.6 µM [rising, single point]

Q: Which cell number change does the source give for `CC(C)(C)OC(=O)N1CCCC1C(=O)NC(Cc1ccccc1)C(=O)O` (stereo not drawn) (Boc-Pro-Phe-OH; configuration not given here) here?
A: -25.8%

Q: What about the AC50 [1] of the same compound?
A: 0.231 µM [falling, full curve, poor fit]

Q: And the AC50 [2]?
A: 1.3 µM [falling, partial curve]

Q: With `O=C(N/N=C\c1ccc(Cl)s1)c1cccs1` as the compound, how does the cell number change read?
A: 32.9%

Q: And the AC50 [1]?
A: 3.66 µM [rising, full curve]

Q: What about the AC50 [2] of the same compound?
A: 18.4 µM [rising, partial curve]

Q: With `CCOC(=O)CSc1ncc(-c2ccccc2)nn1` as the compound, how does the cell number change read?
A: -46.7%

Q: What about the AC50 [1] of the same compound?
A: 32.6 µM [falling, single point]

Q: And the AC50 [2]?
A: 0.092 µM [falling, full curve, poor fit]

Q: With `Cc1ccc(CSC2=NCCN2S(=O)(=O)c2ccc(F)cc2)cc1` as the compound, how does the cell number change read?
A: -20.5%

Q: And the AC50 [2]?
A: 18.4 µM [falling, partial curve]

Q: Which results are given for `Fc1ccc(OCc2nn[nH]n2)c(F)c1`?
A: cell number change: -9.97%; AC50 [2]: 5.8 µM [rising, single point]

Q: Which cell number change does the source give for `O=C(COC(=O)/C=C/c1ccc(Cl)cc1)Nc1ccc2c(c1)OCCO2` here?
A: 8.61%

Q: With `CCCC(=O)Nc1nc(-c2ccccc2)ns1` as the compound, how does the cell number change read?
A: 0.115%

Q: And the AC50 [2]?
A: 1.16 µM [rising, full curve]

Q: With `Cc1ccn2cc(CNS(=O)(=O)c3ccc4c(c3)OCCO4)nc2c1` as the compound, how does the AC50 [2] read?
A: 6.51 µM [falling, single point]

Q: What does the source list for `CC(=O)Oc1cccc(N2C(=O)C3C(C2=O)C2C=CC3C23CC3)c1` (centres undefined)?
A: cell number change: -4.89%; AC50 [2]: 6.51 µM [rising, single point]

Q: Which cell number change does the source give for `Cc1ccc(S(=O)(=O)N2CCc3ccccc3C2CC(=O)O)cc1` (centres undefined) here?
A: 3.42%

Q: What about the AC50 [2] of the same compound?
A: 0.411 µM [rising, single point]

Q: What does the source list for `O=C1CC(c2ccccc2)CC2=C1C(c1ccccn1)Nc1ccccc1N2` (centres undefined)?
A: cell number change: 34.9%; AC50 [1]: 29.1 µM [rising, single point]; AC50 [2]: 29.1 µM [rising, single point]

Q: With `COc1cc(NC(=O)COC(=O)CO/N=C(\C)c2ccc3c(c2)OCO3)cc(OC)c1` as the compound, how does the cell number change read?
A: -14.4%

Q: What about the AC50 [2] of the same compound?
A: 0.731 µM [falling, single point]

Q: For `O=C(Nc1ccc(Cl)c(Cl)c1)Nc1ccon1`, which AC50 [2] is on record?
A: 15.8 µM [falling, partial curve]

Q: What does the source list for `O=C(Cc1ccccc1F)NCC1(N2CCOCC2)CCCCC1`?
A: cell number change: 5.81%; AC50 [2]: 2.59 µM [falling, partial curve, poor fit]

Q: With `Cc1ccc(N2C(=O)NC(C(F)(F)F)(C(F)(F)F)C3=C2CC(C)(C)CC3=O)cc1` as the compound, how does the AC50 [2] read?
A: 1.46 µM [falling, partial curve]

Q: With `N#CCC(=O)NCC1(c2ccccc2)CCCC1` as the compound, how does the cell number change read?
A: 14.6%

Q: And the AC50 [2]?
A: 29.1 µM [falling, single point]

Q: Which cell number change does the source give for `COc1cc(C(C)=O)ccc1Oc1ncnc2c1cnn2-c1ccccc1` here?
A: 18%

Q: What about the AC50 [2] of the same compound?
A: 1.46 µM [rising, partial curve, poor fit]

Q: Which cell number change does the source give for `C[C@@H]1CC=C[C@H]2[C@H]1C(=O)N(Cc1ccccc1)[C@H]2c1cccc([N+](=O)[O-])c1` here?
A: -3.95%

Q: What about the AC50 [2] of the same compound?
A: 2.31 µM [rising, single point]

Q: With `CC(=O)NC1=NN(C(C)=O)C2(CCCC2)S1` as the compound, how does the cell number change read?
A: -150%

Q: And the AC50 [1]?
A: 29.1 µM [falling, single point]

Q: And the AC50 [2]?
A: 29.1 µM [falling, single point]

Q: For `O=C(CCC(=O)Nc1nnc(C2CCCCC2)s1)NCc1cccs1`, which cell number change is on record?
A: 23.2%

Q: And the AC50 [2]?
A: 29.1 µM [rising, single point]

Q: Which cell number change does the source give for `CN(Cc1nc2ccccc2c(=O)[nH]1)C(=O)c1cc(C2CC2)nn1-c1ccccc1` here?
A: -52.6%

Q: And the AC50 [1]?
A: 29.1 µM [falling, single point]

Q: What about the AC50 [2] of the same compound?
A: 0.00461 µM [rising, full curve, poor fit]

Q: With `C=CCN(c1ccccc1Cl)S(=O)(=O)c1cc(C(=O)N2CCCC2)ccc1Cl` as the compound, how does the cell number change read?
A: -0.107%

Q: Which cell number change does the source give for `NC(=O)c1ccc(NC(=O)CSc2nnc(-c3cccnc3)n2Cc2ccco2)cc1` here?
A: 12.5%

Q: Which cell number change does the source give for `O=C(COC(=O)/C=C/c1ccc(Br)o1)NC1CCCCC1` here?
A: 13.3%

Q: What about the AC50 [2] of the same compound?
A: 16.4 µM [rising, partial curve]

Q: With `CCN1C(=O)[C@H]2[C@@H](c3ccc(-c4ccc(OC)cc4)c(OC)c3)N[C@@](C)(C(=O)OC)[C@H]2C1=O` as the compound, how does the cell number change read?
A: 17.7%

Q: And the AC50 [2]?
A: 0.0517 µM [rising, full curve, poor fit]

Q: What does the source list for `N#CCN1C(=O)NC2(CCCc3sccc32)C1=O` (centres undefined)?
A: cell number change: 1.67%; AC50 [2]: 0.116 µM [rising, single point]

Q: Which cell number change does the source give for `COc1ccc(N(CC(=O)NCc2ccccc2OC)S(=O)(=O)c2ccc(C)cc2)cc1Cl` here?
A: -19.6%

Q: Which cell number change does the source give for `O=C(COc1ccccc1)NC1CCSC1=O` (centres undefined) here?
A: -43.6%

Q: With `O=S(=O)(c1cccc(Cl)c1Cl)N1CCCCC1` as the compound, how does the cell number change read?
A: -181%

Q: With `O=C(O)c1ccccc1SCc1ccc2c(c1)OCO2` as the compound, how does the cell number change read?
A: 60.2%

Q: What about the AC50 [1] of the same compound?
A: 23.1 µM [rising, single point]

Q: What about the AC50 [2] of the same compound?
A: 16.4 µM [rising, partial curve]

Q: Which cell number change does the source give for `COc1ccc(CNCCC(c2ccc(OC)cc2)c2ccccc2OC)cc1` (centres undefined) here?
A: -49.4%

Q: And the AC50 [1]?
A: 36.6 µM [falling, partial curve, poor fit]

Q: What about the AC50 [2] of the same compound?
A: 16.4 µM [falling, partial curve, poor fit]

Q: For `CCN(CC)CCn1nc2c3c(cccc3c1=O)-c1ccccc1-2`, which cell number change is on record?
A: -3.5%

Q: Which cell number change does the source give for `N#CC1=C2SCN(c3ccccc3)CN2C(=O)CC1c1cccs1` (centres undefined) here?
A: 3.56%

Q: What about the AC50 [2] of the same compound?
A: 0.731 µM [rising, full curve, poor fit]

Q: For `Cc1nn(C)c(C)c1CNC(=O)c1cnn2c1NC(c1ccccc1)CC2C(F)(F)F` (centres undefined), which cell number change is on record?
A: -9.89%

Q: With `CC1CCN(C(=O)CN(c2cccc(F)c2)S(C)(=O)=O)CC1` as the compound, how does the cell number change read?
A: -20.2%

Q: And the AC50 [2]?
A: 0.00461 µM [falling, full curve, poor fit]

Q: Which results are given for `N#Cc1ccc(OCc2cccc(S(=O)(=O)N3CCOCC3)c2)cc1`?
A: cell number change: 164%; AC50 [1]: 29.1 µM [rising, single point]; AC50 [2]: 29.1 µM [rising, partial curve]

Q: For `c1ccc(CCn2c(C3CC3)nc3ccccc32)cc1`, which AC50 [2] is on record?
A: 0.146 µM [rising, full curve, poor fit]

Q: With `CCN(Cc1ccccc1)C(c1cccc(C#N)c1)c1nnnn1C(C)(C)C` (centres undefined) as the compound, how does the cell number change read?
A: 139%

Q: What about the AC50 [1] of the same compound?
A: 18.4 µM [rising, partial curve]

Q: What about the AC50 [2] of the same compound?
A: 20.6 µM [rising, partial curve]

Q: Which cell number change does the source give for `CC(C(=O)O)n1nc(-c2ccccc2)c2ccccc21` (centres undefined) here?
A: -4.23%

Q: And the AC50 [1]?
A: 0.00461 µM [falling, full curve, poor fit]

Q: Which results are given for `CCn1c(SCC(=O)N2CCOCC2)nc(O)cc1=O`?
A: cell number change: 11.4%; AC50 [2]: 0.00461 µM [rising, full curve, poor fit]

Q: For `O=C(Nc1cccc(F)c1)c1ccc2c(c1)OCCO2`, which cell number change is on record?
A: 2.63%

Q: Which cell number change does the source give for `CCC(C)NC(=O)Nc1ccc(F)c(Cl)c1` (centres undefined) here?
A: -20%

Q: And the AC50 [1]?
A: 0.291 µM [falling, partial curve, poor fit]

Q: What about the AC50 [2] of the same compound?
A: 6.51 µM [falling, partial curve, poor fit]

Q: With `O=C(NCCCn1ccnc1)c1nc(Cn2cc(Br)cn2)no1` as the compound, how does the cell number change read?
A: -23%

Q: Which results are given for `CC(=O)c1ccc(-n2nnnc2SCC(=O)Nc2sc(C)c(C)c2C#N)cc1`?
A: cell number change: 4.27%; AC50 [2]: 0.461 µM [rising, full curve, poor fit]

Q: What does the source list for `COc1ccc(-c2cc(C(F)(F)F)nc(SCCC(=O)Nc3cc(C)on3)n2)cc1`?
A: cell number change: -43.4%; AC50 [1]: 29.1 µM [falling, single point]; AC50 [2]: 6.51 µM [rising, single point]

Q: With `CCOc1c(Br)cc(/C=C2\N=C(C)OC2=O)cc1Br` as the compound, how does the AC50 [1] read?
A: 0.731 µM [falling, single point]

Q: What does the source list for `CCOC(=O)N1CCN(S(=O)(=O)c2ccc(C(=O)Nc3sc4c(c3C#N)CC(C)(C)NC4(C)C)cc2)CC1`?
A: cell number change: 36.3%; AC50 [1]: 0.0651 µM [rising, full curve, poor fit]

Q: With `CCCS(=O)(=O)c1c(S(=O)(=O)CCC)c2c(N)cccn2c1C(=O)c1ccccc1` as the compound, how does the AC50 [2] read?
A: 6.51 µM [rising, single point]

Q: Which cell number change does the source give for `CN(C)/C=N/S(=O)(=O)c1ccc(Cl)cc1` here?
A: -4.53%

Q: Which cell number change does the source give for `CC1CCN(S(=O)(=O)c2ccc(S(=O)(=O)N3CCN4CCCC4C3)cc2)CC1` (centres undefined) here?
A: -49.7%

Q: What about the AC50 [1] of the same compound?
A: 4.11 µM [falling, full curve]

Q: And the AC50 [2]?
A: 0.326 µM [falling, full curve, poor fit]

Q: Which cell number change does the source give for `CC(=O)/C(=N\Nc1cccc(Cl)c1)Sc1cccc2cccnc12` here?
A: 7.18%

Q: And the AC50 [2]?
A: 0.461 µM [rising, partial curve, poor fit]

From PubChem BioAssay AID2685 (National Center for Advancing Translational Sciences (NCATS), 2010)
